According to patent US9669106 (dated 2017):

Assay: general procedure: solution-phase peptide synthesis; DEPC/DIEA; HATU/DIEA
Conditions: trifluoroacetic acid

Substance: 9H-fluoren-9-ylmethyl N-[(1S)-1-[[(3R,4S,5S)-3-methoxy-1-[(2S)-2-[(1R,2R)-1-methoxy-2-methyl-2-[[(1 S)-2-phenyl-1-(1,3-thiazol-2-yl)ethyl]carbamoyl]ethyl]pyrrolidin-1-yl]-5-methyl-1-oxoheptan-4-yl](methyl) carbamoyl]-2-methylpropyl]carbamate
- step yield (coupling step): 71%

Substance: ((2R,3R)-3-((S)-1-((3R,4S,5S)-4-((S)-2-((S)-2-((4-aminophenethyl)(methyl)amino)-3-methylbutanamido)-N,3-dimethylbutanamido)-3-methoxy-5-methylheptanoyl)pyrrolidin-2-yl)-3-methoxy-2-methylpropanoyl)-L-phenylalanine 2,2,2-trifluoroacetate
- final HPLC purity (late stage modification step, 220 nm): 100%
- step yield (late stage modification step): 66%

Substance: Methyl ((2R,3R)-3-((S)-1-((3R,4S,5S)-4-((S)-2-((S)-2-((4-aminophenethyl)(methyl)amino)-3-methylbutanamido)-N,3-dimethylbutanamido)-3-methoxy-5-methylheptanoyl)pyrrolidin-2-yl)-3-methoxy-2-methylpropanoyl)-L-phenylalaninate
- step yield (coupling step): 45%
